According to publication PMC7743899:
No constants are given. Whether binding was seen depends on the method and setting. Binding seen in cells or lysates may run through a third protein.

Chains of the proteins cited; added tags and fusions are not shown.
UniProt Q61142: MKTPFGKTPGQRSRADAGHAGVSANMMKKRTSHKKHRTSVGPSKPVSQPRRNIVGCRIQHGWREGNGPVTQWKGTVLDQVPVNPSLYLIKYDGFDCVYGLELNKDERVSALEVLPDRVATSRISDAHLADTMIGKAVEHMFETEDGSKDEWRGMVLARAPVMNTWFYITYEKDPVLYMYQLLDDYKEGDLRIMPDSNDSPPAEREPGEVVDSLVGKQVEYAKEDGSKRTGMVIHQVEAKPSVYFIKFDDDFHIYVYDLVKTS

Target: T1, TBL1XR1 (Transducin Beta Like 1 X-Linked Receptor 1) (mouse (endogenous in testis)) (UniProt Q8BHJ5)
T1 sequence: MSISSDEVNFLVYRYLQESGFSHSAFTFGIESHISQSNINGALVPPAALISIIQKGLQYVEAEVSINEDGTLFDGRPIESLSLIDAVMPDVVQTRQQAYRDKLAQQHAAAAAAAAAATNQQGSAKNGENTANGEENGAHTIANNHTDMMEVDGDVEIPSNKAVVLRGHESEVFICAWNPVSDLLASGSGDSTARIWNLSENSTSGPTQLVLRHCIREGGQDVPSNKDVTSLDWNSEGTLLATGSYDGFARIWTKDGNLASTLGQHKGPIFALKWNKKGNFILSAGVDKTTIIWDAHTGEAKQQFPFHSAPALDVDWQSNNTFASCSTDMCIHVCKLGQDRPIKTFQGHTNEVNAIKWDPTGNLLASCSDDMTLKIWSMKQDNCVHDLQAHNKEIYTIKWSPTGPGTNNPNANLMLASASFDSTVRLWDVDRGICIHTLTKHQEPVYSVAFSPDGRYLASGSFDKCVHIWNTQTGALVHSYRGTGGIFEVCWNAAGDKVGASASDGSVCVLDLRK
Assay: co-IP; antibody (SLY, SLX/SLXL1, SPIN1 or TBL1XR1) cross-linked to protein A/G-coated beads, incubated with whole-testis extracts (WT or Sly-KD) for 1 h, washed in PBS pH 7.5 with 0.65% Tween, eluted with 0.1 M glycine/HCl pH 3.0; Western blot; IgG as negative control

SPIN1 (from UniProt Q61142 1-262)
binding: no binding
